PubChem BioAssay AID686943 | Drosophila RNAi Screening Center, 2013

Aim: 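Search across the genome for regulators of signalling from receptor tyrosine kinase to ERK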 (primary screen)
Cells: Drosophila S2R+ haemocyte-like cells expressing YFP-tagged ERK (Rolled)
Reagents: long dsRNA against Drosophila genes
Treatment: insulin stimulation versus unstimulated cells; dose and duration not given
Read-out: 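Per-plate z-scores of phospho-ERK immunostaining normalised to YFP-tagged ERK, measured with and without insulin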
Scale: replicate 1, z-score of dpERK with insulin and replicate 2, z-score of dpERK with insulin: higher = more active ERK per ERK-YFP after insulin
The screen tested about 23,000 reagents; shown is a random part of those with a known target gene and a result. 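Extra replicates exist only for a retested subset of genes; insulin dose and duration not given; both raised and lowered dpERK matter.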 Further read-outs or replicates are left out here. Not stated in the record: the amount of reagent, the time to read-out.

Gene,dsRNA,"replicate 1, z-score of dpERK with insulin","replicate 2, z-score of dpERK with insulin"
Alp5,DRSC14269,-0.23,-0.5
CG5910,DRSC11786,0.13,0.14
Sfp26Ad,DRSC00904,-0.84,0.24
CG3706,DRSC18649,0.69,0.32
Ube3a,DRSC10600,0.23,0.15
dsx,DRSC12649,-0.5,-0.37
dsx,DRSC16934,0.5,-0.2
dsx,DRSC21495,0.32,0.74
alpha-Man-IIb,DRSC16898,-0.63,-0.02
NimC1,DRSC01879,-0.2,-0.06
plh,DRSC12294,1.06,0.9
CG5039,DRSC15703,0.13,0.18
inv,DRSC07633,-0.24,-0.52
HSPC300,DRSC22880,0.13,0.31
fh,DRSC18430,-0.54,-0.94
Dlc90F,DRSC16649,-0.16,-0.44
CG9270,DRSC03182,0.48,0.48
Cerk,DRSC12285,0.32,-0.26
aln,DRSC08240,0.52,-0.53

Records listed so far whose target name starts with A or a (3):
Gene,dsRNA,"replicate 1, z-score of dpERK with insulin","replicate 2, z-score of dpERK with insulin"
Alp5,DRSC14269,-0.23,-0.5
alpha-Man-IIb,DRSC16898,-0.63,-0.02
aln,DRSC08240,0.52,-0.53

Additional reagents follow:
Gene,dsRNA,"replicate 1, z-score of dpERK with insulin","replicate 2, z-score of dpERK with insulin"
TfIIEalpha,DRSC11303,-0.45,-0.57
hyd,DRSC16971,-2.62,0.05
CG30088,DRSC21764,-0.6,0.53
Smn,DRSC10223,-0.24,-0.49
TTLL4A,DRSC02528,0.39,0.55
Obsc,DRSC04301,0.09,-0.46
Obsc,DRSC04302,0.07,-0.13
Obsc,DRSC04303,0.91,0.62
Obsc,DRSC04430,0.06,-0.42
Obsc,DRSC22422,0.64,0.3
CG31612,DRSC03697,0.84,1.07
CG31612,DRSC03698,0.41,1.21
Naa30A,DRSC18583,-2.64,2.72
Nost,DRSC18037,1.22,-0.1
Nost,DRSC18338,1.02,0.58
Obp85a,DRSC14362,0.15,-0.24
Or85b,DRSC16765,0.14,0.96
CG8026,DRSC07055,0.48,1.01
CG8026,DRSC07056,-0.38,0.12
mi,DRSC04498,-2.13,-1.4
